The values that follow come from US12551482B2, “Aurora kinase inhibitors” (The Regents of the University of California, priority 2013, dated 2026).

The experiment relates to SK-N-BE(2) MYCN-amplified neuroblastoma cells. Kind of experiment: Viability at 72 hrs, CyQUANT assay. It counts as cell-based. Particulars: Homo sapiens, SKNBE2, SK-N-BE(2) cells, FIG. 1E, read-out: cellular EC50 at 72 hrs. The method, then:
Neuroblastoma cells were treated for the indicated time, trypsinized, washed, stained with Dylight 800 at 0.3 μg/mL (Pierce, 46421), fixed with 1.5% PFA, and permeabilized with 100% methanol. Cells were then stained with antibodies against p-MPM2 (Millipore, 16-155), p-pan-Aurora (Cell Signaling, 2914), MYCN (Thermo, PA5-17403), rabbit IgG (Invitrogen, A10542), or mouse IgG (BioLegend, 405307). Cells were stained with DAPI at 0.3 μg/mL (Invitrogen, D21490) and analyzed on the BD LSR II flow cytometer. For cell cycle analysis, cells were stimulated with EdU for 2 hours prior to harvest, then probed using the Click-iT EdU Flow Cytometry Assay Kit (Invitrogen, C10424). Cells were stained with propidium iodide (BD, 556547) and analyzed on the BD FACSCalibur flow cytometer. Data was gated using Cytobank. For viability studies, neuroblastoma cells were plated in 96-well plates at a density of 1,000 cells/well for SHEP or 4,000 cells/well for Kelly or SK—N-BE2 cells, then incubated with indicated concentrations of drug for 72 hours at 37° C. […] CyQUANT reagent mixture (Invitrogen, C7026) was added to thawed plates, then fluorescence was measured. Alternatively, resazurin (Sigma-Aldrich, R7017) was added directly to wells following drug treatment then incubated for 4 hours at 37° C. prior to measuring fluorescence. Data was analyzed using GraphPad Prism software.

A word on the EC50: it is the concentration at which the effect is half-maximal. Take `COc1cc(Nc2ncc3c(n2)-c2ccc(Cl)cc2C(c2c(F)cccc2OC)=NC3)ccc1C(=O)O` [MLN8237]: the 50% effective concentration (EC50) was 40.9 nM.
